Experimental data published in PubChem BioAssay AID256 (DTP/NCI, 2004).
The list is a part of this screen's results and no random one: it is rich in T/C values a quarter to a half above the control, in often repeated tests (any T/C) and in doses without a T/C. Further doses and runs are listed elsewhere. T/C is the treated group as % of the vehicle group. Some doses have a count of surviving animals in place of a T/C: the source files T/C as zero there, which appears to mark a toxic dose or a test without result, not a measured value. Some survivor counts are full or nearly so, which does not show that the dose was tolerated: the source hardly ever lists a survival T/C far under the control, and the zero likely stands for such cases as well. Counts of survivors are from the toxicity check (mostly the fifth day) where no day follows; animals may have died later. Schedule codes are those of the source, read here as Q, the interval in days (D) or hours (H), X, the number of doses. Where survival is the endpoint, the PubChem record calls one and a half times the control and up active, and a quarter to a half above the control has no call in these data; cut-offs in other NCI protocols can differ. Some T/C values are followed by the survivors on the day toxicity was checked, most often the fifth; where none is given, no animal had died by that day.

System: CD2F1 mice, L1210 leukemia ip, survival T/C
Assay: NCI In Vivo Anticancer Drug Screen. Data for tumor model L1210 Leukemia (intraperitoneal) in CD2F1 (CDF1) mice
Conditions: higher T/C = longer survival
Method in brief: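 Activity against a transplanted murine tumor was judged by comparing the compound group with a vehicle group. The outcome in the treated animals was divided by that in the controls.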

[1] = T/C endpoint: mean survival time, dose: 400.0 mg/kg/injection, schedule: Q01DX009 (ip), vehicle: saline with Tween-80
[2] = T/C endpoint: mean survival time, dose: 400.0 mg/kg/injection, schedule: Q01DX001 (ip), vehicle: saline
[3] = T/C endpoint: mean survival time, dose: 200.0 mg/kg/injection, schedule: Q01DX009 (ip), vehicle: saline with Tween-80
[4] = T/C endpoint: mean survival time, dose: 400.0 mg/kg/injection, schedule: Q04DX003 (ip), vehicle: saline with Tween-80

COc1ccccc1NC(=O)Nc1ccc(C(=O)OCC(C)C)cc1
survivor count [1]: 3 of 6

CC(=O)OCC1OC(c2nn(C(C)=O)c(C(N)=O)c2O)C(OC(C)=O)C1OC(C)=O (stereo unspecified)
T/C (T/C endpoint: median survival time, dose: 6.25 mg/kg/injection, schedule: Q01DX005 (ip), vehicle: saline): 133 % of control
T/C (T/C endpoint: median survival time, dose: 12.5 mg/kg/injection, schedule: Q01DX005 (ip), vehicle: saline): 137 % of control

CC1CCC(C(C)C)/C(=N/NC(=O)CC#N)C1 (stereo unspecified)
survivor count [2]: 0 of 4

[Br][Pt].[NH-]CC[N-]CC[NH-]
survivor count (T/C endpoint: mean survival time, dose: 50.0 mg/kg/injection, schedule: Q01DX009 (ip), vehicle: water): 4 of 6
survivor count (T/C endpoint: mean survival time, dose: 100.0 mg/kg/injection, schedule: Q01DX009 (ip), vehicle: water): 0 of 6
survivor count (T/C endpoint: mean survival time, dose: 200.0 mg/kg/injection, schedule: Q01DX009 (ip), vehicle: water): 0 of 6

Cc1cc2c(C(C)C)c(O)c(O)c(C=O)c2c(O)c1-c1c(C)cc2c(C(C)C)c(O)c(O)c(C=O)c2c1O
survivor count (T/C endpoint: median survival time, dose: 25.0 mg/kg/injection, schedule: Q01DX009 (ip), vehicle: saline with Tween-80): 3 of 6
survivor count (T/C endpoint: median survival time, dose: 50.0 mg/kg/injection, schedule: Q01DX009 (ip), vehicle: saline with Tween-80): 0 of 6
survivor count (T/C endpoint: median survival time, dose: 100.0 mg/kg/injection, schedule: Q01DX009 (ip), vehicle: saline with Tween-80): 0 of 6

CN=S(=O)(OCCCCCOS(=O)(=NC)c1ccccc1)c1ccccc1 (stereo unspecified)
survivor count [3]: 6 of 6
survivor count [1]: 2 of 5

NC(=S)N/N=C\c1ncccc1OCc1cccc(N)c1
T/C (T/C endpoint: mean survival time, dose: 200.0 mg/kg/injection, schedule: Q01DX009 (ip), vehicle: distilled water + Tween-80): 133 % of control
T/C (T/C endpoint: mean survival time, dose: 400.0 mg/kg/injection, schedule: Q01DX009 (ip), vehicle: distilled water + Tween-80): 127 % of control
survivor count [1]: 6 of 6

CCOCCO
survivor count (T/C endpoint: mean survival time, dose: 100.0 mg/kg/injection, schedule: Q01DX001 (ip), vehicle: saline sonified): 0 of 6
survivor count (T/C endpoint: mean survival time, dose: 200.0 mg/kg/injection, schedule: Q01DX001 (ip), vehicle: saline sonified): 0 of 6
survivor count (T/C endpoint: mean survival time, dose: 400.0 mg/kg/injection, schedule: Q01DX001 (ip), vehicle: saline sonified): 0 of 6

Cn1c2ccccc2c2cc[n+]3c(c21)CCCC3
T/C (T/C endpoint: mean survival time, dose: 100.0 mg/kg/injection, schedule: Q01DX001 (ip), vehicle: saline): 127 % of control [4 of 6 alive]
survivor count (T/C endpoint: mean survival time, dose: 200.0 mg/kg/injection, schedule: Q01DX001 (ip), vehicle: saline): 0 of 6
survivor count [2]: 0 of 6

O=C1CSC(=S)N1/N=C/c1ccc(Cl)c(Cl)c1
survivor count (T/C endpoint: mean survival time, dose: 12.5 mg/kg/injection, schedule: Q04DX003 (ip), vehicle: saline with Tween-80): 6 of 6
survivor count (T/C endpoint: mean survival time, dose: 25.0 mg/kg/injection, schedule: Q04DX003 (ip), vehicle: saline with Tween-80): 5 of 6
survivor count (T/C endpoint: mean survival time, dose: 100.0 mg/kg/injection, schedule: Q04DX003 (ip), vehicle: saline with Tween-80): 0 of 6
survivor count (T/C endpoint: mean survival time, dose: 200.0 mg/kg/injection, schedule: Q04DX003 (ip), vehicle: saline with Tween-80): 0 of 6
survivor count [4]: 0 of 6

O=C1Nc2ccccc2C1c1ccccc1 (stereo unspecified)
survivor count (T/C endpoint: mean survival time, dose: 400.0 mg/kg/injection, schedule: Q04DX002 (ip), vehicle: saline with Tween-80): 3 of 3

NNC(=O)CCc1ccccc1Br
survivor count [3]: 6 of 6
survivor count [4]: 6 of 6

C=C1C(=O)OC2CC1C(OC(C)=O)CC1(C)OC1CCC1(C)OC1CCC2(C)O (stereo unspecified)
survivor count (T/C endpoint: mean survival time, dose: 50.0 mg/kg/injection, schedule: Q01DX009 (ip), vehicle: Klucel (hydroxypropylcellulose) (HPC)): 4 of 6
survivor count (T/C endpoint: mean survival time, dose: 100.0 mg/kg/injection, schedule: Q01DX009 (ip), vehicle: Klucel (hydroxypropylcellulose) (HPC)): 2 of 6
